Data from PubChem BioAssay AID1347076 (National Center for Advancing Translational Sciences (NCATS), 2019).
Among all 400,000 compounds or so, about 13,000 (3.2%) were called active. Inconclusive means that the source gave no clear call. Such entries were picked first, then a sample of the others. Calls come from the whole dose curve; as a rule, active = well fitted cell-killing curve with a large enough effect; inconclusive = small, poorly fitted or top-dose-only effect, or effect the other way; inactive = flat fitted curve, though single readings scatter. Where the call is inconclusive, the potency comes from a doubtful curve fit.

assay: qHTS assay for MDR1-selective chemotherapeutics: Primary screen using the drug-selected MDR subline cells KB-V1; conditions: KB-V1 MDR cells viability, CellTiter-Glo, 72 h; series mostly up to 46.1 µM; note: nearly all actives have a fitted effect of over 60% in size
In short: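 Potencies derive from concentration-effect curves fitted to normalized luminescence (CellTiter-Glo) of KB-V1 cells treated for 72 h at 37 degrees C in phenol-red-free DMEM containing 10% FBS.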
Potency is the fitted concentration of half-maximal effect.

SMILES	Potency
O=C1CCCC2=C1C(c1cccs1)n1nc(SCc3ccccc3F)nc1N2 (stereo unspecified)	inconclusive: 14.6 µM [cytotoxic, partial curve]
Cc1cccc(N2CCN(C(=O)C3CCN(c4ncnc5c4nc4n5CCCCC4)CC3)CC2C)c1 (stereo unspecified)	inconclusive: 18.4 µM [cytotoxic, single point]
COc1ccc(-n2c(C)cc(C3=NNC(=NC4CC4)SC3)c2C)cc1	inconclusive: 20.6 µM [cytotoxic, single point]
Cc1ccc(S(=O)(=O)N2[C@H](CC(=O)c3cccs3)OC[C@@H]2C(C)C)cc1	active: 18.4 µM
CCOC(=O)c1c(N=CN(C)C)c2cc([N+](=O)[O-])cnc2n1C	inconclusive: 29.1 µM [cytotoxic, single point]
COc1ccc(NC(=O)CCNC(=O)C2CCN(S(=O)(=O)c3ccc(F)cc3)CC2)cc1OC	inconclusive: 9.2 µM [rising, partial curve, poor fit]
Cc1ccc(C)c(NC(=O)c2cc(-c3cccnc3)nc3ccccc23)c1	inactive
CC(/C=C/c1ccccc1F)=N\NC(=O)c1ccccc1	inconclusive: 20.6 µM [cytotoxic, single point]
Cc1ccc2c(c1)C1CC(C)(O2)N(c2cccc(C(=O)NC3CCN(Cc4ccccc4)CC3)c2)C(=O)N1 (stereo unspecified)	inconclusive: 13 µM [rising, partial curve, poor fit]
CCN(CC)C(=S)SCC(=O)c1ccc(F)cc1	active: 18.4 µM
COc1ccc(CNC(N)=O)cc1	inactive
CC(=O)Nc1ccc(NC(=O)[C@@H](NC(=O)c2ccccc2F)C(C)C)cc1	inactive
COc1cc(C(=O)N2CCN(S(=O)(=O)c3ccc(F)cc3)CC2)cc(OC)c1OC	active: 20.6 µM
Nc1nc(-c2cccs2)c(-c2cccs2)s1	inconclusive: 23.1 µM [rising, single point]
Cc1cc(NC(=O)COc2ccc(Cl)cc2Cl)n(CCC#N)n1	inconclusive: 29.1 µM [cytotoxic, single point]
COc1ccc(Cl)cc1CNC[C@H]1O[C@@H](n2ccc(N)nc2=O)[C@H](O)[C@@H]1O	inactive
Cc1ccc(NC(=S)NC(NC(=O)c2ccccc2C)C(Cl)(Cl)Cl)c(C)c1 (stereo unspecified)	inconclusive: 29.1 µM [cytotoxic, single point]
CSC1=NCCN1C(=O)Cc1ccc(-c2ccccc2)cc1	inconclusive: 16.4 µM [cytotoxic, single point]
CCC(C)NC(=O)CCC(=O)N1Cc2ccccc2Oc2ncccc21 (stereo unspecified)	inconclusive: 4.61 µM [rising, full curve]
O=C(c1ccc(-c2ccccc2Cl)o1)N1CCC1	inconclusive: 16.4 µM [cytotoxic, partial curve]
O=C(CN(C(=O)c1ccccc1)C(=O)c1ccccc1)OCc1ccccc1	inconclusive: 29.1 µM [cytotoxic, single point]
Cc1ccc(C)c(S(=O)(=O)N2CCN(C(=O)C3CCN(C(=O)c4ccc(F)cc4)CC3)CC2)c1	active: 7.31 µM
CCOC(=O)CNC(=S)N(Cc1ccc(C)cc1)Cc1ccc(C)o1	active: 16.4 µM
CCOC(=O)c1c(C)[nH]c(C)c1S(=O)(=O)N(C)CC(=O)Nc1ccc(CC)cc1	inconclusive: 32.6 µM [cytotoxic, single point]

SMILES	Potency
CC(C)CCNC(=O)CSc1nc2ccccc2c(=O)[nH]1	active: 16.4 µM
CCCCOc1ncnc2c1[nH]c1ccc(C)cc12	active: 7.31 µM
COc1ccc(CNC(=O)c2cc3ccccn3n2)cc1OC	inconclusive: 18.4 µM [cytotoxic, single point]
CCCn1c(O)c(N=NC(=O)c2cccnc2)c2cc(Br)ccc21	inconclusive: 16.4 µM [cytotoxic, partial curve]
O=C(CCSc1ccccc1)Nc1nc2c(s1)CCCC2	active: 25.9 µM
CC1=CC(C)(C)N2C(=O)C3(NCCc4c3[nH]c3ccccc43)c3cc(C)cc1c32 (stereo unspecified)	inconclusive: 2.59 µM [cytotoxic, full curve, poor fit]
O=C(NCc1ccncc1)C1Cc2c(-c3ccc4c(c3)OCO4)ccnc2O1 (stereo unspecified)	inconclusive: 16.4 µM [cytotoxic, partial curve]
O=C(Cn1cc2c(n1)CCCCC2)NCCCN1CCOCC1	inactive
Cc1nc(/N=C(\N)NC(=O)NC2CCCCC2)nc2ccccc12	active: 5.17 µM
COc1ccccc1N(C)S(=O)(=O)c1ccc(C(=O)N(C)Cc2cccc(OC)c2OC)cc1	inactive
COC(=O)C1=C(C)NC(c2c(O)ccc3ccccc23)C(C(=O)OC)=C1C (stereo unspecified)	inconclusive: 9.2 µM [cytotoxic, partial curve, poor fit]
COc1cccc(CNC(=O)c2cccc(S(=O)(=O)N3CCN(C)CC3)c2)c1	inconclusive: 20.6 µM [cytotoxic, partial curve, poor fit]
COc1ccc(C2(CNC(=O)/C=C/c3ccco3)CCCC2)cc1OC	inconclusive: 11.6 µM [cytotoxic, partial curve, poor fit]
CCC(C)(C)NC(=O)c1ccc(Sc2nncn2C)c([N+](=O)[O-])c1	inconclusive: 25.9 µM [rising, single point]
CCOC(=O)c1sc2nc(CC(=O)OC)nc(NCCN(CC)CC)c2c1C	active: 9.2 µM
O=C(Nc1ccccc1)Nc1ccc2nnsc2c1	inconclusive: 16.4 µM [cytotoxic, partial curve]
COc1ccc(CNc2ncnc3cc(Cl)ccc23)cc1OC	active: 20.6 µM
COc1cccc(NC(=O)C(OC(=O)c2ccccc2NS(=O)(=O)c2cccs2)c2ccccc2)c1 (stereo unspecified)	inconclusive: 32.6 µM [cytotoxic, partial curve, poor fit]
c1ccc(-c2nc(NCCCn3ccnc3)c3oc4ccccc4c3n2)cc1	active: 5.8 µM
O=C(CSc1nc(-c2ccccc2)cc(=O)[nH]1)N1CCc2ccccc21	inconclusive: 20.6 µM [cytotoxic, single point]
Cc1c(-c2ccccc2)nc2c(Cl)cccc2c1C(=O)OCC(=O)c1ccc(F)cc1	inactive
O=C1c2cccc(OCC(=O)N3CCCc4ccccc43)c2CCN1Cc1cccnc1	active: 3.66 µM
Cc1nc(CSc2nnc(C)s2)cs1	inconclusive: 32.6 µM [rising, single point]
O=C(Nc1ccccc1)Nc1nccs1	inconclusive: 16.4 µM [cytotoxic, partial curve, poor fit]

SMILES	Potency
CN(C)c1ccc(P(=O)(OCc2ccccc2)C(O)c2cccnc2)cc1 (stereo unspecified)	inconclusive: 23.1 µM [cytotoxic, partial curve, poor fit]
Cc1ccc(NC(=O)Cn2cc(S(=O)(=O)Cc3ccc(F)cc3)c3ccccc32)cc1Cl	inconclusive: 29.1 µM [cytotoxic, single point]
O=C(CN1CCCCCC1)N/N=C/c1ccc(Cl)c(Cl)c1	inactive
CCc1nnc(NC(=O)c2ccc3c(c2)C(=O)N(C(C)(C)C)C3=O)s1	inconclusive: 13 µM [cytotoxic, partial curve]
CCC(=O)Nc1nn(CC(C)C)c2nc3ccc(C)cc3cc12	inactive
O=C(CSc1ccc2nnc(CCNC(=O)c3ccccc3)n2n1)NCCc1ccccc1	inconclusive: 7.31 µM [rising, partial curve, poor fit]
CCc1ccc(NC(=O)CSC2=C(C#N)C(c3ccco3)C3=C(CCCC3=O)N2)cc1 (stereo unspecified)	inconclusive: 18.4 µM [cytotoxic, partial curve]
COc1ccc(-c2cc(C(F)(F)F)c3c(n2)sc2c(O)cc(=O)[nH]c23)c(OC)c1	inconclusive: 13 µM [cytotoxic, partial curve]
COc1cccc(NC(=S)N2CCN(Cc3ccccc3)CC2)c1	inactive
CCCn1cc(NC(=O)C2CC(c3cccc(Br)c3)=NO2)cn1 (stereo unspecified)	inactive
O=c1c(-c2ccccc2)cnc2n1CCS2	inconclusive: 29.1 µM [rising, single point]
CCCCn1c(N)c(N(CCC(C)C)C(=O)C2CC(=O)N(c3ccc(OC)cc3OC)C2)c(=O)[nH]c1=O (stereo unspecified)	inactive
O=C(C1CCN(S(=O)(=O)c2ccc(Br)s2)CC1)N1CCN(c2cccc(C(F)(F)F)c2)CC1	inconclusive: 25.9 µM [cytotoxic, partial curve, poor fit]
O=C(O)CCc1ccc(-c2cccs2)n1CCC(=O)O	inactive
C=CCC(C#N)(c1ccc(OC)c(OC)c1)c1cnccn1 (stereo unspecified)	inconclusive: 0.517 µM [rising, full curve]
CCCSc1ncc(Cl)c(C(=O)Nc2sc3c(c2C(=O)OC)CCCC3)n1	inconclusive: 29.1 µM [rising, single point]
COC1=C(Nc2ccc(OC)cc2)C(=O)c2ccccc2C1=O	inconclusive: 23.1 µM [cytotoxic, single point]
COc1ccc2c(c1)[C@@H]1[C@H](CO2)[C@H](c2ccccc2)[C@]2(C)C(=O)Nc3ccc(C)cc3C(=O)N12	inconclusive: 23.1 µM [cytotoxic, single point]
Nc1ncnc(NCc2ccccc2)c1[N+](=O)[O-]	inactive
Cc1cccc(C)c1NC(=O)CC1SC2=NCCN2C1=O (stereo unspecified)	inconclusive: 11.6 µM [rising, partial curve, poor fit]
COc1ccccc1-c1nnc(NC(=O)Cc2ccccc2)o1	inactive
Cc1ccccc1C(=O)NNC(=O)CCCCC(=O)NNC(=O)c1ccccc1C	inactive
C/C(=N\Nc1ccc(Cl)c(C(=O)O)c1)c1cccs1	inconclusive: 29.1 µM [rising, single point]

Quoted from the listing.
CCCCn1c(N)c(N(CCC(C)C)C(=O)C2CC(=O)N(c3ccc(OC)cc3OC)C2)c(=O)[nH]c1=O (stereo unspecified) | Potency: inactive
CN(C)c1ccc(P(=O)(OCc2ccccc2)C(O)c2cccnc2)cc1 (stereo unspecified) | Potency: inconclusive: 23.1 µM [cytotoxic, partial curve, poor fit]
CCCn1cc(NC(=O)C2CC(c3cccc(Br)c3)=NO2)cn1 (stereo unspecified) | Potency: inactive

Reformatted: entries from further up.
O=C(CSc1ccc2nnc(CCNC(=O)c3ccccc3)n2n1)NCCc1ccccc1
  Potency: inconclusive: 7.31 µM [rising, partial curve, poor fit]
C=CCC(C#N)(c1ccc(OC)c(OC)c1)c1cnccn1 (stereo unspecified)
  Potency: inconclusive: 0.517 µM [rising, full curve]
